Reference: paper doi:10.1101/2025.07.25.666749
Results are given in words; binding and its absence hold for the method and conditions named. In cells and extracts the contact can be indirect. A yes stands for co-enrichment or nearness to the bait. Other partners may have been found.

T1: ZFP36L1 (endogenous) (human (endogenous in primary T cells)) (UniProt Q07352)
T1 sequence: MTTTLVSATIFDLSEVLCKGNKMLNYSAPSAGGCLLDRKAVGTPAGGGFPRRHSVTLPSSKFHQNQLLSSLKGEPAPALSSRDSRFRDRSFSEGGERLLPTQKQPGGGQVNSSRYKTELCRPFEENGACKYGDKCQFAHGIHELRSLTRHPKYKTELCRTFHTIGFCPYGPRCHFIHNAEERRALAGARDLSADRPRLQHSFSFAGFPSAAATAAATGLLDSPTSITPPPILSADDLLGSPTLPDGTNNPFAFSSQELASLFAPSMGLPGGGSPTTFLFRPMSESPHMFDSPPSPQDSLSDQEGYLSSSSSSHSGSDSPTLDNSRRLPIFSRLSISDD

B1: Stau2 (protein, UniProt Q9NUL3 1-570)
chain: MANPKEKTAMCLVNELARFNRVQPQYKLLNERGPAHSKMFSVQLSLGEQTWESEGSSIKKAQQAVANKALTESTLPKPVQKPPKSNVNNNPGSITPTVELNGLAMKRGEPAIYRPLDPKPFPNYRANYNFRGMYNQRYHCPVPKIFYVQLTVGNNEFFGEGKTRQAARHNAAMKALQALQNEPIPERSPQNGESGKDVDDDKDANKSEISLVFEIALKRNMPVSFEVIKESGPPHMKSFVTRVSVGEFSAEGEGNSKKLSKKRAATTVLQELKKLPPLPVVEKPKLFFKKRPKTIVKAGPEYGQGMNPISRLAQIQQAKKEKEPDYVLLSERGMPRRREFVMQVKVGNEVATGTGPNKKIAKKNAAEAMLLQLGYKASTNLQDQLEKTGENKGWSGPKPGFPEPTNNTPKGILHLSPDVYQEMEASRHKVISGTTLGYLSPKDMNQPSSSFFSISPTSNSSATIARELLMNGTSSTAEAIGLKGSSPTPPCSPVQPSKQLEYLARIQGFQAALSALKQFSEQGLDPIDGAMNIEKGSLEKQAKHLREKADNNQAPPGSIAQDCKKSNSAV
B2: RBM27 (protein, UniProt Q9P2N5 1-1060)
chain: MLIEDVDALKSWLAKLLEPICDADPSALANYVVALVKKDKPEKELKAFCADQLDVFLQKETSGFVDKLFESLYTKNYLPLLEPVKPEPKPLVQEKEEIKEEVFQEPAEEERDGRKKKYPSPQKTRSESSERRTREKKREDGKWRDYDRYYERNELYREKYDWRRGRSKSRSKSRGLSRSRSRSRGRSKDRDPNRNVEHRERSKFKSERNDLESSYVPVSAPPPNSSEQYSSGAQSIPSTVTVIAPAHHSENTTESWSNYYNNHSSSNSFGRNLPPKRRCRDYDERGFCVLGDLCQFDHGNDPLVVDEVALPSMIPFPPPPPGLPPPPPPGMLMPPMPGPGPGPGPGPGPGPGPGPGPGHSMRLPVPQGHGQPPPSVVLPIPRPPITQSSLINSRDQPGTSAVPNLASVGTRLPPPLPQNLLYTVSERQPMYSREHGAAASERLQLGTPPPLLAARLVPPRNLMGSSIGYHTSVSSPTPLVPDTYEPDGYNPEAPSITSSGRSQYRQFFSRTQTQRPNLIGLTSGDMDVNPRAANIVIQTEPPVPVSINSNITRVVLEPDSRKRAMSGLEGPLTKKPWLGKQGNNNQNKPGFLRKNQYTNTKLEVKKIPQELNNITKLNEHFSKFGTIVNIQVAFKGDPEAALIQYLTNEEARKAISSTEAVLNNRFIRVLWHRENNEQPTLQSSAQLLLQQQQTLSHLSQQHHHLPQHLHQQQVLVAQSAPSTVHGGIQKMMSKPQTSGAYVLNKVPVKHRLGHAGGNQSDASHLLNQSGGAGEDCQIFSTPGHPKMIYSSSNLKTPSKLCSGSKSHDVQEVLKKKQEAMKLQQDMRKKRQEVLEKQIECQKMLISKLEKNKNMKPEERANIMKTLKELGEKISQLKDELKTSSAVSTPSKVKTKTEAQKELLDTELDLHKRLSSGEDTTELRKKLSQLQVEAARLGILPVGRGKTMSSQGRGRGRGRGGRGRGSLNHMVVDHRPKALTVGGFIEEEKEDLLQHFSTANQGPKFKDRRLQISWHKPKVPSISTETEEEEVKEEETETSDLFLPDDDDEDEDEYESRSWRR
B3: FAM120A (protein, UniProt Q9NZB2 1-1118)
chain: MGVQGFQDYIEKHCPSAVVPVELQKLARGSLVGGGRQRPPQTPLRLLVDADNCLHRLYGGFYTDWVSGGQWNHMLGYLAALAKACFGGNIELFVFFNGALEKARLHEWVKRQGNERQTAQQIVSHVQNKGTPPPKVWFLPPVCMAHCIRLALIRFHVKVAQSIEDHHQEVIGFCRENGFHGLVAYDSDYALCNIPYYFSAHALKLSRNGKSLTTSQYLMHEVAKQLDLNPNRFPIFAALLGNHILPDEDLASFHWSLLGPEHPLASLKVRAHQLVLPPCDVVIKAVADYVRNIQDTSDLDAIAKDVFQHSQSRTDDKVIRFKRAIGYYSATSKPMSFHPPHYLAARPGPFGMPGMVPPHVPPQMLNIPQTSLQAKPVAPQVPSPGGAPGQGPYPYSLSEPAPLTLDTSGKNLTEQNSYSNIPHEGKHTPLYERSSPINPAQSGSPNHVDSAYFPGSSTSSSSDNDEGSGGATNHISGNKIGWEKTGSHSEPQARGDPGDQTKAEGSSTASSGSQLAEGKGSQMGTVQPIPCLLSMPTRNHMDITTPPLPPVAPEVLRVAEHRHKKGLMYPYIFHVLTKGEIKIAVSIEDEANKDLPPAALLYRPVRQYVYGVLFSLAESRKKTERLAFRKNRLPPEFSPVIIKEWAAYKGKSPQTPELVEALAFREWTCPNLKRLWLGKAVEDKNRRMRAFLACMRSDTPAMLNPANVPTHLMVLCCVLRYMVQWPGARILRRQELDAFLAQALSPKLYEPDQLQELKIENLDPRGIQLSALFMSGVDMALFANDACGQPIPWEHCCPWMYFDGKLFQSKLLKASREKTPLIDLCDGQADQAAKVEKMRQSVLEGLSFSRQSHTLPFPPPPALPFYPASAYPRHFGPVPPSQGRGRGFAGVCGFGGPYGETVATGPYRAFRVAAASGHCGAFSGSDSSRTSKSQGGVQPIPSQGGKLEIAGTVVGHWAGSRRGRGGRGPFPLQVVSVGGPARGRPRGVISTPVIRTFGRGGRYYGRGYKNQAAIQGRPPYAASAEEVAKELKSKSGESKSSAMSSDGSLAENGVMAEEKPAPQMNGSTGDARAPSHSESALNNDSKTCNTNPHLNALSTDSACRREAALEAAVLNKEE
B4: NFKBIE (protein, UniProt O00221 1-500)
chain: MNQRRSESRPGNHRLQAYAEPGKGDSGGAGPLSGSARRGRGGGGAIRVRRPCWSGGAGRGGGPAWAVRLPTVTAGWTWPALRTLSSLRAGPSEPHSPGRRPPRAGRPLCQADPQPGKAARRSLEPDPAQTGPRPARAAGMSEARKGPDEAEESQYDSGIESLRSLRSLPESTSAPASGPSDGSPQPCTHPPGPVKEPQEKEDADGERADSTYGSSSLTYTLSLLGGPEAEDPAPRLPLPHVGALSPQQLEALTYISEDGDTLVHLAVIHEAPAVLLCCLALLPQEVLDIQNNLYQTALHLAVHLDQPGAVRALVLKGASRALQDRHGDTALHVACQRQHLACARCLLEGRPEPGRGTSHSLDLQLQNWQGLACLHIATLQKNQPLMELLLRNGADIDVQEGTSGKTALHLAVETQERGLVQFLLQAGAQVDARMLNGCTPLHLAAGRGLMGISSTLCKAGADSLLRNVEDETPQDLTEESLVLLPFDDLKISGKLLLCTD

These binders were tested against T1, ZFP36L1 (endogenous) (human (endogenous in primary T cells)) (assay: affinity purification with mass spectrometry).

Question: How did the binding turn out when B1 was run?
Answer: The binding was “binds”.

Question: Which binding does the source give for B2 here?
Answer: Its binding is “binds”.

Question: For B3, which binding is on record?
Answer: The binding was “binds”.

Question: How did the binding turn out when B4 was run?
Answer: The binding was “binds”.
